The supplement of paper PMC3682954
Where a name gives a salt, the structure may show the parent alone. ± gives the standard deviation of the averaged measurements. This is one part of the list. Repeats are few or missing, and single values can be far off.

System: RAW 264.7
Assay: HMGB1-induced TNF-alpha production relative to HMGB1-stimulated control; higher = more TNF-alpha secretion (less inhibition)
Settings: stimulus: HMGB1 5 ug/ml, 18 h
[1] = compound concentration: 1 ug/ml

Row | SMILES | HMGB1-induced TNF-alpha production (compound concentration: 3 uM) [%] | HMGB1-induced TNF-alpha production [1] [%]
1 | CC1(C)O[C@@H]2C[C@H]3[C@@H]4C[C@H](F)C5=CC(=O)CC[C@]5(C)[C@H]4[C@@H](O)C[C@]3(C)[C@]2(C(=O)CO)O1 [Flurandrenolide] | 35.7 | –
2 | CC1(C)O[C@@H]2C[C@H]3[C@@H]4C[C@H](F)C5=CC(=O)CC[C@]5(C)[C@H]4[C@@H](O)C[C@]3(C)[C@]2(C(=O)CO)O1 | 33.5 | –
3 | O=C(O)c1cccnc1 | 76.9 | –
4 | O=C(O)c1cccnc1 [Niacin] | 95.6 | –
5 | CCCCc1oc2ccccc2c1C(=O)c1cc(I)c(OCCN(CC)CC)c(I)c1 [Amiodarone] | 91.9 | –
6 | CCCCc1oc2ccccc2c1C(=O)c1cc(I)c(OCCN(CC)CC)c(I)c1 | 96.8 ± 1.2 | –
7 | CCCCc1oc2ccccc2c1C(=O)c1cc(I)c(OCCN(CC)CC)c(I)c1 [Amiodarone hydrochloride] | 82.9 ± 9.2 | –
8 | O=c1[nH]c(=O)n([C@H]2C[C@H](O)[C@@H](CO)O2)cc1I [Idoxuridine] | 79.6 ± 17 | –
9 | Cc1cccc(-c2cc(=O)c3cc(Br)ccc3o2)c1 [6-Bromo-3'-methylflavone] | – | 72.2
10 | COc1cc(C(=O)OC2CC3CCC2(C)C3(C)C)ccc1O (stereo not given) | – | 73.7
11 | Cc1cccc(N(C)C(=S)Oc2ccc3ccccc3c2)c1 [Tolnaftate] | 28.9 | –
12 | Cc1cccc(N(C)C(=S)Oc2ccc3ccccc3c2)c1 | 70.1 | –
13 | N[C@@H](COP(=O)(O)O)C(=O)O [O-Phospho-L-serine] | 107 | –
14 | CC1(C)OC2[C@@H](O1)[C@H](n1cnc3c(N)ncnc31)O[C@@H]2CO (stereo not given in full) [2',3'-O-Isopropylideneadenosine] | – | 74.2
15 | CCN1CCCC1CNC(=O)c1cc(S(N)(=O)=O)ccc1OC (stereo not given) | 93.1 | –
16 | CCN1CCCC1CNC(=O)c1cc(S(N)(=O)=O)ccc1OC (stereo not given) [Sulpiride] | 73 | –
17 | O=C(O)c1cc2cc(F)ccc2[nH]1 [5-Fluoroindole-2-carboxylic acid] | 99.3 | –
18 | CC12CC3CC(C)(C1)CC(N)(C3)C2 [Memantine Hydrochloride] | 92.3 | –
19 | CC12CC3CC(C)(C1)CC(N)(C3)C2 [Memantine hydrochloride] | 102 | –
20 | CC12CC3CC(C)(C1)CC(N)(C3)C2 | 91 ± 4.5 | –
21 | CC12CC3CC(C)(C1)CC(N)(C3)C2 [Memantine] | 120 | –

Row | SMILES | HMGB1-induced TNF-alpha production (compound concentration: 3 uM) [%] | HMGB1-induced TNF-alpha production [1] [%]
22 | Nc1ccc(S(=O)(=O)O)cc1.Nc1ccc(S(=O)(=O)O)cc1.[Zn] | 87 | –
23 | C#C[C@]1(O)CC[C@H]2[C@@H]3CCC4=Cc5oncc5C[C@]4(C)[C@H]3CC[C@@]21C [Danazol] | 70.4 ± 7.4 | –
24 | C#C[C@]1(O)CC[C@H]2[C@@H]3CCC4=Cc5oncc5C[C@]4(C)[C@H]3CC[C@@]21C | 84.9 | –
25 | O=C(Nc1ccc([N+](=O)[O-])cc1Cl)c1cc(Cl)ccc1O | 241 ± 130 | –
26 | O=C(Nc1ccc([N+](=O)[O-])cc1Cl)c1cc(Cl)ccc1O [Niclosamide] | 271 ± 44 | –
27 | CCOc1ccc(Cc2nccc3cc(OCC)c(OCC)cc23)cc1OCC [Ethaverine hydrochloride] | 111 | –
28 | CCOc1ccc(Cc2nccc3cc(OCC)c(OCC)cc23)cc1OCC | 106 | –
29 | N[C@@H](Cc1cnc[nH]1)C(=O)Nc1ccc2ccccc2c1 [L-Histidine beta-naphthylamide] | – | 98.9
30 | COc1ccc(-c2cc(=O)c3c(OC)c(OC)c(OC)c(OC)c3o2)cc1OC | 102 | –
31 | COc1ccc(-c2cc(=O)c3c(OC)c(OC)c(OC)c(OC)c3o2)cc1OC [Nobiletin] | 99.1 | –
32 | CCC[C@@H]1C[C@@H](C(=O)N[C@@H]([C@H]2O[C@H](SC)[C@H](O)[C@@H](O)[C@H]2O)[C@@H](C)O)N(C)C1 | 96.2 | –
33 | CCC[C@@H]1C[C@@H](C(=O)N[C@@H]([C@H]2O[C@H](SC)[C@H](O)[C@@H](O)[C@H]2O)[C@@H](C)O)N(C)C1 [Lincomycin hydrochloride] | 70.8 | –
34 | CCC[C@@H]1C[C@@H](C(=O)N[C@@H]([C@H]2O[C@H](SC)[C@H](O)[C@@H](O)[C@H]2O)[C@@H](C)O)N(C)C1 [Lincomycin] | 94 | –
35 | CN1CCCN=C1/C=C/c1cccs1 | 78 | –
36 | CN1CCCN=C1/C=C/c1cccs1 [Pyrantel Pamoate] | 95.8 | –
37 | CN1CCCN=C1/C=C/c1cccs1 [Pyrantel tartrate] | 93.8 | –
38 | CC(C)(C)NC(=O)[C@H]1CC[C@H]2[C@@H]3CC[C@H]4NC(=O)C=C[C@]4(C)[C@H]3CC[C@]12C | 103.1 ± 0.71 | –
39 | CC(C)(C)NC(=O)[C@H]1CC[C@H]2[C@@H]3CC[C@H]4NC(=O)C=C[C@]4(C)[C@H]3CC[C@]12C [Finasteride] | 95.6 ± 13 | –
40 | C=CC[N+]1([C@H]2C[C@H]3[C@@H]4CC[C@H]5C[C@H](O)[C@@H](N6CCOCC6)C[C@]5(C)[C@H]4CC[C@]3(C)[C@H]2OC(C)=O)CCCC1 [Rocuronium] | 99.8 | –
41 | Nc1nc(N)c2nc(-c3ccccc3)c(N)nc2n1 | 68.5 | –
42 | Nc1nc(N)c2nc(-c3ccccc3)c(N)nc2n1 [Triamterene] | 86 ± 19 | –

Quoted from the listing.
In HMGB1-induced TNF-alpha production (compound concentration: 3 uM) [%], CCC[C@@H]1C[C@@H](C(=O)N[C@@H]([C@H]2O[C@H](SC)[C@H](O)[C@@H](O)[C@H]2O)[C@@H](C)O)N(C)C1 has 96.2
In HMGB1-induced TNF-alpha production (compound concentration: 3 uM) [%], CCC[C@@H]1C[C@@H](C(=O)N[C@@H]([C@H]2O[C@H](SC)[C@H](O)[C@@H](O)[C@H]2O)[C@@H](C)O)N(C)C1 [Lincomycin hydrochloride] has 70.8
In HMGB1-induced TNF-alpha production (compound concentration: 3 uM) [%], CCC[C@@H]1C[C@@H](C(=O)N[C@@H]([C@H]2O[C@H](SC)[C@H](O)[C@@H](O)[C@H]2O)[C@@H](C)O)N(C)C1 [Lincomycin] has 94

Additional records follow.

Row | SMILES | HMGB1-induced TNF-alpha production (compound concentration: 3 uM) [%] | HMGB1-induced TNF-alpha production [1] [%]
43 | C=C1CC[C@H](O)C/C1=C/C=C1\CCC[C@]2(C)[C@@H]([C@H](C)/C=C/[C@H](C)C(C)C)CC[C@@H]12 | 82.8 | –
44 | CCCCOc1ccc(C(=O)CCN2CCCCC2)cc1 | 67.3 | –
45 | CCCCOc1ccc(C(=O)CCN2CCCCC2)cc1 [Dyclonine hydrochloride] | 66.1 | –
46 | C=C1C(=O)O[C@H]2[C@H]1CC/C(C)=C/CC[C@@]1(C)O[C@@H]21 [Parthenolide] | 11.3 ± 13 | 22.7
47 | CC[C@H](C)C(=O)O[C@H]1C[C@H](O)C=C2C=C[C@H](C)[C@H](CC[C@@H]3C[C@@H](O)CC(=O)O3)[C@H]21 [Pravastatin Lactone] | 87.3 | –
48 | COc1ccc(CCn2nnnc2C2(c3ccc(C)cc3)CC2)cc1 [Mephetyl tetrazole] | 97 | –
49 | CN1[C@@H]2CC[C@H]1C[C@@H](OC(=O)C(O)c1ccccc1)C2 (mixture of isomers) [Homatropine hydrobromide (R,S)] | 64.5 | –
50 | CN1[C@@H]2CC[C@H]1C[C@@H](OC(=O)C(O)c1ccccc1)C2 (mixture of isomers) [DL-Homatropine hydrobromide] | 81.1 | –
51 | Cn1nnc2c(C(N)=O)ncn2c1=O | 125 | –
52 | Cn1nnc2c(C(N)=O)ncn2c1=O [Temozolomide] | 98.1 ± 16 | –
53 | CC(C)(C)CC(C)(C)c1ccc(OCCOCC[N+](C)(C)Cc2ccccc2)cc1 [Benzethonium chloride] | 132 | –
54 | CC(C)(C)CC(C)(C)c1ccc(OCCOCC[N+](C)(C)Cc2ccccc2)cc1 | 102 | –
55 | CC(C)NCC(O)COc1cccc2[nH]ccc12 (stereo not given) | 103 | –
56 | CC(C)NCC(O)COc1cccc2[nH]ccc12 (stereo not given) [Pindolol] | 101 ± 1.2 | –
57 | OC(CCN1CCCC1)(c1ccccc1)C1CCCCC1 (stereo not given) [Procyclidine hydrochloride] | 108 | –
58 | OC(CCN1CCCC1)(c1ccccc1)C1CCCCC1 (stereo not given) | 77.6 | –
59 | CC(CN(C)C)CN1c2ccccc2CCc2ccccc21 (stereo not given) | 89.9 | –
60 | CC(CN(C)C)CN1c2ccccc2CCc2ccccc21 (stereo not given) [Trimipramine maleate] | 106 | –
61 | CC(CN(C)C)CN1c2ccccc2CCc2ccccc21 (stereo not given) [Trimipramine maleate salt] | 117 | –
62 | COC(=O)[C@H]1[C@H]2C[C@H]3c4[nH]c5ccccc5c4CCN3C[C@H]2CC[C@@H]1O [Rauwolscine hydrochloride] | 108 | 84.3
63 | COC(=O)C(C)(N)Cc1ccc(O)cc1 (racemic) [alpha-Methyl-DL-tyrosine methyl ester hydrochloride] | 92.6 | –

Row | SMILES | HMGB1-induced TNF-alpha production (compound concentration: 3 uM) [%] | HMGB1-induced TNF-alpha production [1] [%]
64 | Nc1ncnc2c1ncn2[C@@H]1O[C@@H]2COP(=O)(O)O[C@H]2[C@H]1O [Adenosine 3',5'-cyclic monophosphate] | 88.4 | –
65 | CC1=C(/C=C/C(C)=C/C=C/C(C)=C/C=C/C=C(C)/C=C/C=C(C)/C=C/C(=O)[C@]2(C)C[C@@H](O)CC2(C)C)C(C)(C)C[C@H](O)C1 | 93.8 | –
66 | C[C@H]1[C@H]2CC[C@H]3[C@@H]4CC=C5C[C@@H](N(C)C)CC[C@]5(C)[C@H]4CC[C@]23CN1C [Conessine] | – | 69.5
67 | CC(C)C(=O)c1c(C(C)C)nn2ccccc12 [Ibudilast] | 63.9 ± 27 | –
68 | C[N+](C)(C)C[C@H](O)CC(=O)[O-] | 90.2 | –
69 | NCCc1ccc(O)c(O)c1 [Dopamine hydrochloride] | 105 ± 22 | –
70 | NCCc1ccc(O)c(O)c1 | 96.9 | –
71 | COc1ccc2c(=O)cc(-c3ccc(O)cc3)oc2c1 | – | 55.2
72 | C[C@H](Cc1ccc(O)c(O)c1)[C@@H](C)Cc1ccc(O)c(O)c1 | 153 | –
73 | NC(N)=NC(N)=Nc1ccccc1 [1-Phenylbiguanide] | 111 | –
74 | COc1ccc2c(=O)cc(-c3ccccc3OC)oc2c1 [2',7-Dimethoxyflavone] | – | 91.7
75 | NC(=O)c1ccccc1 [Benzamide] | 59.9 | –
76 | CN(Cc1cc(Br)cc(Br)c1N)C1CCCCC1 [Bromhexine hydrochloride] | 117 | –
77 | CN(Cc1cc(Br)cc(Br)c1N)C1CCCCC1 [Bromhexine] | 84.3 | –
78 | CN(Cc1cc(Br)cc(Br)c1N)C1CCCCC1 | 109 | –
79 | C[C@H](CS)C(=O)N1CCC[C@H]1C(=O)O | 81.9 | –
80 | C[C@H](CS)C(=O)N1CCC[C@H]1C(=O)O [Captopril] | 90.1 ± 22 | –
81 | Cc1cc(C(=O)N/N=C/c2c(O)c(O)c(C(C)C)c3cc(C)c(-c4c(C)cc5c(C(C)C)c(O)c(O)c(/C=N/NC(=O)c6cc(C)[nH]n6)c5c4O)c(O)c23)n[nH]1 | – | 50.9
82 | CC1(C)O[C@@H]2C[C@H]3[C@@H]4C[C@H](F)C5=CC(=O)C=C[C@]5(C)[C@H]4[C@@H](O)C[C@]3(C)[C@]2(C(=O)CO)O1 | 36 | –
83 | CC1(C)O[C@@H]2C[C@H]3[C@@H]4C[C@H](F)C5=CC(=O)C=C[C@]5(C)[C@H]4[C@@H](O)C[C@]3(C)[C@]2(C(=O)CO)O1 [Flunisolide] | 41.8 | –
